Measured values from PMC7819943, “Rice protein-binding microarrays: a tool to detect cis-acting elements near promoter regions in rice”.
The other results are listed elsewhere or left out.

The sequences below were run against T1, OsSMF1 (Oryza sativa, UniProt Q6ZLB0 1-436) (assay: protein-binding microarray (RPBM); PBS, 2% BSA, 51.3 ng/ul salmon testes DNA, 50 uM zinc acetate, 200 nM TF, 25 C, 1 h; high values mean tight binding). Details: protein: recombinant; tags: N-terminal polyhistidine and DsRed monomer fusion (pET32a); chain copies: 2; label: CyDye5-dUTP incorporated in the synthesized complementary strand; 3' TTTTT single-stranded linker to array surface; dsDNA, one strand shown.
T1 sequence: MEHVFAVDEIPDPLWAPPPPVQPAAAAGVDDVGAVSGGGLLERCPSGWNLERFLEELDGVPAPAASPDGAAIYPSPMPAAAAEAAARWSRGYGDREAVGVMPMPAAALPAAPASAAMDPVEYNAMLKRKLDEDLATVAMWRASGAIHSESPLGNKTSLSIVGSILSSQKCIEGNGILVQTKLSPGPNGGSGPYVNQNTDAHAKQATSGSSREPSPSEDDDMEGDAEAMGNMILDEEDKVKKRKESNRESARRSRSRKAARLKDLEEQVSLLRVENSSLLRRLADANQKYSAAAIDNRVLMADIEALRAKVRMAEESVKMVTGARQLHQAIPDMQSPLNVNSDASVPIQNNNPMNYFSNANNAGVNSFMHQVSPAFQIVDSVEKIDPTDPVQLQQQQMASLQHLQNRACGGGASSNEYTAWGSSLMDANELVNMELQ
How it was run: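 Transcription factors were each fused at the N-terminus to a polyhistidine tag plus DsRed and expressed in E. coli BL21-CodonPlus before Ni–NTA purification. Binding to a double-stranded custom Agilent array was carried out with 200 nM protein at 25 °C for 1 h in PBS, 2% BSA, salmon testes DNA and 50 µM zinc acetate. The binding signal is per-feature fluorescence intensity, in arbitrary units, on an Axon 4000B scanner.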

Sequence | binding signal
AACCAGAATTTCCCAGGAGGAACACGCAGATTAGCAAAGGCGGAGTCACCTAGTGCAG | 3270 fluorescence intensity (a.u.)
CTAGCGACGAAACATTTCAACACGTCAACAAATGGTCGGGCGGAGTCACCTAGTGCAG | 3310 fluorescence intensity (a.u.)
CGGCTTACTGTGTGTCCGTGGTGTCATCGTTGCTGGTCGCCGGAGTCACCTAGTGCAG | 4740 fluorescence intensity (a.u.)
TCCTAATGCGTCATATTTTCAACTAAATCGTACTCGTCGACGGAGTCACCTAGTGCAG | 3960 fluorescence intensity (a.u.)
GTCTTTCTTGTGCTAGCTCGAGGCACAACATCCCCACATGCGGAGTCACCTAGTGCAG | 4240 fluorescence intensity (a.u.)
GTGTGACACGTCACTCTCGTTCCGGCTCGGCCAGTCGCCGCGGAGTCACCTAGTGCAG | 19900 fluorescence intensity (a.u.)
GTTAACAACGAGATCTTATGCGTGACATGTGTGAAAATTTCGGAGTCACCTAGTGCAG | 3690 fluorescence intensity (a.u.)
GGTTTGTCTCCAAGGCCAAATCTCCGACCCAGGCATCATACGGAGTCACCTAGTGCAG | 3880 fluorescence intensity (a.u.)
GTGGCCTTGAACCGTCCATAGCGCGATCTGCGGTCCAGGACGGAGTCACCTAGTGCAG | 3640 fluorescence intensity (a.u.)
TAAAATTACGAGTTGTCAGTGCTGTGCCTATATGTGCACGCGGAGTCACCTAGTGCAG | 3650 fluorescence intensity (a.u.)
ATACTAGAGCTACGCGTAGAGGCGGGAAGAGACGAGGGCGCGGAGTCACCTAGTGCAG | 3180 fluorescence intensity (a.u.)
CTCTCTCCCTCCTCCTCCAACTCCACATCGATCAGCAGCACGGAGTCACCTAGTGCAG | 3330 fluorescence intensity (a.u.)
CAGAGCAGGGGAGGGGAGGGGAGGGGATCCTGGTGAGCCTCGGAGTCACCTAGTGCAG | 6310 fluorescence intensity (a.u.)
GCAATACGGCCTGAAATACCACTTTTACAACTCCCTTCACCGGAGTCACCTAGTGCAG | 5340 fluorescence intensity (a.u.)
AACCTATGGCGAAATTTTGCGTCATGTCTCGCTCAAATGCCGGAGTCACCTAGTGCAG | 3210 fluorescence intensity (a.u.)
CGGAGTATACATACGTACACCGCTACATTTCTAGATTACACGGAGTCACCTAGTGCAG | 20600 fluorescence intensity (a.u.)
CACCAGCGGATGAGCGCCACGTGTCCGCTACAGGCATGGGCGGAGTCACCTAGTGCAG | 18100 fluorescence intensity (a.u.)
GCTTTCTTGGCTAAAGATGACACGCCTTTTATGCTAGAGGCGGAGTCACCTAGTGCAG | 4690 fluorescence intensity (a.u.)
GCAAAGATAGACCCAGGGGTTCCGGGTGTGCACCGGCATACGGAGTCACCTAGTGCAG | 3220 fluorescence intensity (a.u.)
GACACGGAAAAGTGGCGGACCAGTAACGTATATACGCCCACGGAGTCACCTAGTGCAG | 21400 fluorescence intensity (a.u.)
CTATAGCATCACGAGCCCCAGTCTATGGCACGTGGTCCCGCGGAGTCACCTAGTGCAG | 5050 fluorescence intensity (a.u.)

2 records picked at random from those above, as already listed:
Sequence | binding signal
AACCAGAATTTCCCAGGAGGAACACGCAGATTAGCAAAGGCGGAGTCACCTAGTGCAG | 3270 fluorescence intensity (a.u.)
CGGAGTATACATACGTACACCGCTACATTTCTAGATTACACGGAGTCACCTAGTGCAG | 20600 fluorescence intensity (a.u.)

Further records.

Sequence | binding signal
CCCCTCCGCGGCTTCACCCCGTGTCCCCGTCACTCTCCGGCGGAGTCACCTAGTGCAG | 5800 fluorescence intensity (a.u.)
AGTGTTATCGTCAGTTCCAAAAGGTGCTTGACGTGGAAAGCGGAGTCACCTAGTGCAG | 6850 fluorescence intensity (a.u.)
ACCGGAGATCTAATCTCGGTCAGACCGATGGCAACCAGGTCGGAGTCACCTAGTGCAG | 3520 fluorescence intensity (a.u.)
TTAGGGGAGTGAATGACAAGTGGAGCCCACGTGGGCCTCACGGAGTCACCTAGTGCAG | 6510 fluorescence intensity (a.u.)
CCACTTAAATCAAAACCGGGGTCAAAACCACCGAAGGATCCGGAGTCACCTAGTGCAG | 31500 fluorescence intensity (a.u.)
CCTCTAGATCCTCTATGGTACTATATGTACAGTGCTGTTTCGGAGTCACCTAGTGCAG | 42900 fluorescence intensity (a.u.)
CTCTCCTGAGGTGCCACTTCACATTAATATGCTCCTTCTGCGGAGTCACCTAGTGCAG | 3460 fluorescence intensity (a.u.)
GAAACCATGTGTTAGTCAGTCACTCACCGTTGTTGCAGCACGGAGTCACCTAGTGCAG | 9240 fluorescence intensity (a.u.)
ATGTTATAATGCGTCAATTGATGGCAACTGTTTCCATTGTCGGAGTCACCTAGTGCAG | 3240 fluorescence intensity (a.u.)
TGTCTCAGGCTCTCGTGTCGGTATACAGGCTCTCGTGTATCGGAGTCACCTAGTGCAG | 3820 fluorescence intensity (a.u.)
CCGCCGCCGCCGCCGCCGCCGTCGCCATCGCCGTCGTCTTCGGAGTCACCTAGTGCAG | 28800 fluorescence intensity (a.u.)
GTTACAGTGCGCATTGCAGCAAATCTGCAGGCTCTAGTTGCGGAGTCACCTAGTGCAG | 3280 fluorescence intensity (a.u.)
CGCGGACCGCACGTTCGCTTGGCCTTCGTGGACGCTGTGGCGGAGTCACCTAGTGCAG | 3370 fluorescence intensity (a.u.)
AATTATATATCCGATACCAAAGCCAAATCAACACATCACACGGAGTCACCTAGTGCAG | 33200 fluorescence intensity (a.u.)
CTTTGGATCCACGACGCAGCTATGGCCTCCCCGCCCACCACGGAGTCACCTAGTGCAG | 3410 fluorescence intensity (a.u.)
TACACCAGACAGCATGCATCGATCGGCAGCCACGTCACAGCGGAGTCACCTAGTGCAG | 20000 fluorescence intensity (a.u.)
ACAATGGAGTTGTGTGTGTGGATAAGTGGCACGTGGGGATCGGAGTCACCTAGTGCAG | 5530 fluorescence intensity (a.u.)
CTTGCTGCCTCAAATATTGTTTTATTGATGCCAAAATGTTCGGAGTCACCTAGTGCAG | 4070 fluorescence intensity (a.u.)
GATGACAATTAACACACGTGGGGCTTCCCTATTCGTCTGACGGAGTCACCTAGTGCAG | 3280 fluorescence intensity (a.u.)
TATTTTGTTGGTTCACTATGACATATCTCACTATCTCTTTCGGAGTCACCTAGTGCAG | 4000 fluorescence intensity (a.u.)
TTCTTTATTCTTCCAAGCTGATCGGACGAAAATGCCCCTGCGGAGTCACCTAGTGCAG | 3560 fluorescence intensity (a.u.)
